Data as given in the supplement of paper PMC6078165.

Legend:
[1] = test system: MDAMB231; assay: relative JC-1 red fluorescence (viability) vs pre-drug, monoculture (fraction); higher = more viable cancer cells; conditions: coculture fibroblast: none (monoculture)
Procedure: (§1)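 JC-1 labelled TNBC cells grown in monoculture (density kept equal with unlabelled cancer cells) in 384-well plates in FluoroBrite medium, treated with one of 42 anticancer drugs at 0.1, 1, 10 or 100 uM. JC-1 red fluorescence (mitochondrial integrity, surrogate of apoptotic death) was read by plate reader every 8 h for 72 h. Values are normalised to each well's pre-drug value, with background from alamethicin. The stock of one drug was tenfold lower, so its dose labels may be too high. Monoculture values are repeated alongside each fibroblast plate and are averaged here.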

[2] = test system: MDAMB436; assay: as above; conditions: coculture fibroblast: none (monoculture)
Procedure: as §1

COc1cc([C@@H]2c3cc4c(cc3[C@@H](O[C@@H]3O[C@@H]5CO[C@@H](C)O[C@H]5[C@H](O)[C@H]3O)[C@H]3COC(=O)[C@H]23)OCO4)cc(OC)c1O [Etoposide]
relative JC-1 red fluorescence
Conditions	8 h	16 h	24 h	32 h	40 h	48 h	56 h	64 h	72 h
[1], 0.1 µM	0.805	0.807	0.775	0.764	0.686	0.767	0.737	0.75	0.764
[1], 1 µM	0.729	0.687	0.698	0.627	0.591	0.583	0.567	0.595	0.599
[1], 10 µM	0.794	0.728	0.787	0.697	0.668	0.676	0.659	0.714	0.724
[1], 100 µM	0.714	0.696	0.702	0.656	0.639	0.633	0.624	0.669	0.68
[2], 0.1 µM	0.896	0.87	0.856	0.921	0.83	0.811	0.868	0.825	0.864
[2], 1 µM	0.832	0.816	0.879	0.873	0.896	0.8104	0.853	0.833	0.882
[2], 10 µM	0.8657	0.817	0.841	0.802	0.815	0.81	0.821	0.837	0.852
[2], 100 µM	0.857	0.843	0.877	0.851	0.862	0.898	0.909	0.923	0.889

Nc1ccn([C@@H]2O[C@H](CO)[C@@H](O)C2(F)F)c(=O)n1 [Gemcitabine]
relative JC-1 red fluorescence
Conditions	8 h	16 h	24 h	32 h	40 h	48 h	56 h	64 h	72 h
[1], 0.1 µM	0.726	0.661	0.568	0.554	0.508	0.501	0.471	0.486	0.493
[1], 1 µM	0.7083	0.66244	0.6056	0.576	0.538	0.523	0.485	0.507	0.5113
[1], 10 µM	0.7477	0.6932	0.64	0.621	0.595	0.596	0.551	0.595	0.606
[1], 100 µM	0.712	0.668	0.6	0.568	0.524	0.52	0.498	0.531	0.551
[2], 0.1 µM	0.85	0.783	0.77636	0.7386	0.7453	0.7568	0.7757	0.7945	0.8097
[2], 1 µM	0.854	0.716	0.727	0.686	0.666	0.663	0.657	0.665	0.664
[2], 10 µM	0.886	0.761	0.769	0.711	0.707	0.703	0.71	0.714	0.718
[2], 100 µM	0.86	0.8143	0.774	0.7	0.669	0.656	0.64	0.636	0.627

CCN(CC)CCNC(=O)c1c(C)[nH]c(/C=C2\C(=O)Nc3ccc(F)cc32)c1C [Sunitinib]
relative JC-1 red fluorescence
Conditions	8 h	16 h	24 h	32 h	40 h	48 h	56 h	64 h	72 h
[1], 0.1 µM	0.686	0.652	0.656	0.603	0.566	0.551	0.537	0.557	0.56
[1], 1 µM	0.736	0.713	0.605	0.631	0.592	0.561	0.526	0.531	0.51
[1], 10 µM	0.764	0.819	0.5739	0.631	0.538	0.452	0.371	0.312	0.248
[1], 100 µM	0.454	0.336	0.314	0.333	0.323	0.368	0.369	0.395	0.418
[2], 0.1 µM	0.83	0.766	0.771	0.737	0.723	0.725	0.735	0.732	0.747
[2], 1 µM	0.859	0.746	0.772	0.728	0.718	0.728	0.719	0.711	0.719
[2], 10 µM	0.751	0.647	0.598	0.525	0.481	0.457	0.431	0.395	0.383
[2], 100 µM	0.6001	0.414	0.395	0.334	0.308	0.309	0.28	0.273	0.276

Values are relative to the signal before dosing, not to a vehicle control; the signal also falls without drug.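 The cancer cells are triple-negative breast cancer lines of basal-like or mesenchymal-like type, grown without fibroblasts. A drop in red signal reflects loss of mitochondrial integrity, a stand-in for apoptotic death.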
